{"source": "patent US8278414B2", "about": "“DNA sequence encoding a retinoic acid regulated protein” (The Hong Kong University of Science and Technology, priority 1999, dated 2012)", "type_in_all_cases": "cell-based, human", "key": {"[1]": {"tested_on": "8.31 expression in NT2 cells", "assay": "Northern blot analysis of 8.31 expression in RA-treated NT2 cells"}, "[2]": {"tested_on": "8.31 expression in KG1 cells", "assay": "RT-PCR analysis of 8.31 expression in RA-treated KG1 cells", "conditions": "1 μM all-trans RA"}, "[3]": {"tested_on": "HL-60 cells", "assay": "Growth rate of HL-60 cells treated with RA", "conditions": "treatment with RA"}, "[4]": {"tested_on": "8.31 expression in HL-60 cells", "assay": "Northern blot analysis of 8.31 expression in RA-treated HL-60 cells", "conditions": "1 μM all-trans RA"}}, "note": "At least one structure is not confirmed: it was looked up by name or label, or the drawing left a doubt."}
{"smiles": "CC1=C(/C=C/C(C)=C/C=C/C(C)=C/C(=O)O)C(C)(C)CCC1", "note": "[all-trans RA, retinoic acid]", "values": [{"measurement": "expression of 8.31", "setting": "[1]; after 1 day of RA treatment", "result": "slightly induced"}, {"measurement": "expression of 8.31", "setting": "[1]; day 2 of RA treatment", "result": "decreased to its basal level"}, {"measurement": "expression of 8.31", "setting": "[1]; day 28 of RA treatment", "result": "almost halted"}, {"measurement": "expression of 8.31", "setting": "[2]", "result": "down-regulated"}, {"measurement": "growth rate", "setting": "[3]", "result": "sharply decreased"}, {"measurement": "expression of 8.31", "setting": "[4]; 3 days", "result": "significantly down-regulated"}, {"measurement": "expression of 8.31", "setting": "[4]; day 6", "result": "diminished"}]}
